# Primary screen of a compound library

The chains behind the UniProt entries cited, without tags or fusion partners.
UniProt E9BF75, entry or part of it: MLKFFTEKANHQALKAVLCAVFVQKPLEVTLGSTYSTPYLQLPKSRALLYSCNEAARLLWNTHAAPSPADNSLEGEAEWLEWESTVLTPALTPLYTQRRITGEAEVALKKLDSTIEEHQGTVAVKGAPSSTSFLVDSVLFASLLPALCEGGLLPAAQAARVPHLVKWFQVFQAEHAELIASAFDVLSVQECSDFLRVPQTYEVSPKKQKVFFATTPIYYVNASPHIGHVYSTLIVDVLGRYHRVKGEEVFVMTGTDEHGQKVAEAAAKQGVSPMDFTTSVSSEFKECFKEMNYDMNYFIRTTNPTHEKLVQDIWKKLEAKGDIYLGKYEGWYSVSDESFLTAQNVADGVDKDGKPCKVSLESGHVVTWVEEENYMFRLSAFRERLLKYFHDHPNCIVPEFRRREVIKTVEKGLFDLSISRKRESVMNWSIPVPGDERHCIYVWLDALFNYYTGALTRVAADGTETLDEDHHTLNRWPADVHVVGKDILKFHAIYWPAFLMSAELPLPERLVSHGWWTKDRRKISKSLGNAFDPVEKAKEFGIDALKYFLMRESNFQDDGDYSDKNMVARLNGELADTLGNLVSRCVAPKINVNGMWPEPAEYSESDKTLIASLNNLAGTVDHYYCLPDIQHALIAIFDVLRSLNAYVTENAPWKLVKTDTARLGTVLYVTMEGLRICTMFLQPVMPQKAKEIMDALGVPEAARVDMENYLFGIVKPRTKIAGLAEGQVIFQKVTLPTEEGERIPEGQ

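Methionyl-tRNA synthetase (putative), Leishmania donovani (UniProt E9BF75). Primary screen of methionyl-tRNA synthetase; the read-out is not stated. The test concentration is not given. The values are filed as inhibition. Size under these conditions: about 68,000 compounds, about 24 of them at 50% or above in at least one test.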

All values are in %. How 0% and 100% were set is not recorded. Most values in the screen are low, and negative values occur. The compounds are a random part of those screened.

With Cn1ncc2c(N[C@@H]3C[C@@H]4CC[C@H]3C4)nc(-c3ccncc3)nc21 the screen gave 12.04%.
With Cc1nccn1C1CCCN(C(=O)CCNc2ncccn2)C1 (configuration not stated) the screen gave 14.61%.
With COCCN1CCC(CNC(=O)Nc2ccc(SC(F)(F)F)cc2)C1 (configuration not stated) the screen gave 12.24%.
With COC[C@@]12CCO[C@@H]1CCN(C(=O)Cc1ccccc1C)C2 the screen gave 21.25%.
With CCN1CCC(NC(=O)CN2CCCCC2Cn2cccn2)CC1 (configuration not stated) the screen gave 10.37%.
With O=C(NCc1ccco1)[C@H]1CC[C@@H]2[C@@H](CCN2Cc2cccnc2)O1 the screen gave 3.226%.
With CS(=O)(=O)NCc1cn2c(n1)CN(Cc1cccnc1)CC2 the screen gave 3.519%.
With O=C(Nc1cnn(CCN2CCOCC2)c1)c1ccccc1Cl the screen gave 15.85%.
With Cc1ccc(-c2noc(C(C)(C)NS(C)(=O)=O)n2)cc1F the screen gave 14.52%.
With O=C1CC[C@]2(CC[C@@H](NC3CCOC3)CC2)N1Cc1ccncc1 (some centres not stated) the screen gave -209.4%.
With CCCn1nc(-c2nc(COc3ccccc3)no2)ccc1=O the screen gave 8.101%.
With Cc1ccc2cc(C3(O)CCN(C)CC3)ccc2n1 the screen gave 13.86%.
With CCn1cc2c(n1)CN(Cc1ccc(C)o1)CC2COCC1CC1 (configuration not stated) the screen gave 17.46%.
With CN(C)C(=O)c1n[nH]c2c1CN(CC1CCC1)C2 the screen gave 9.29%.
With COc1ccccc1CN1CC[C@H]2C[C@H](C(=O)N3CCCC3)O[C@H]2C1 the screen gave 0.7092%.
With CC(O)CN1CCN(Cc2cccc(C(=O)N3CCCCC3)c2)CC1 (configuration not stated) the screen gave 3.911%.
With Cn1cc(CN(C(=O)C2COc3ccccc3C2)C2CC2)cn1 (configuration not stated) the screen gave 10.13%.
With c1csc(CN2C[C@@H](n3cccn3)[C@H]3OCCC[C@H]32)c1 the screen gave 10.1%.
With O=C(CN1CCCC(c2ncc[nH]2)C1)NCCCN1CCCCCC1=O (configuration not stated) the screen gave 2.484%.
With O=C(CC1CC1)N[C@@H]1CN(Cc2ccccn2)C[C@@H]2CCCO[C@@H]21 the screen gave 13.33%.
With CNc1snc(C)c1C(=O)N1CCCC(n2ccnc2C)C1 (configuration not stated) the screen gave 23.41%.
With Cc1nc(N(C)C)cc(C2(C)CCNCC2)n1 the screen gave 8.399%.
With CS(=O)(=O)NCCCN1CCCC1Cc1ccccc1 (configuration not stated) the screen gave 12.68%.
With CNC(=O)NCC(=O)N1CCCC1Cc1cccc(F)c1 (configuration not stated) the screen gave 4.032%.
With Cc1noc(-c2cnc(NC3CC3)nc2-c2ccco2)c1C the screen gave 16.82%.
With CC(C)(C)c1nccc(C2(c3ccccc3Cl)CCNCC2)n1 the screen gave 11.17%.
With Cc1ccc2[nH]c(CN(C)Cc3n[nH]c4c3CCC4)nc2c1 the screen gave -9.747%.
With CC(C)(C)c1noc(CN2CCN(C(=O)c3ccco3)CC2)n1 the screen gave 1.441%.
With Cc1noc(C)c1CN1CCC2(CC1)C(c1cnn(C)c1)CC(=O)N2C (configuration not stated) the screen gave 5.685%.
With O=C(Cc1cccc(O)c1)NCCCNC(=O)c1cccc(F)c1 the screen gave 12.25%.
With CCCc1nnc(N2CCC(N3CCN(CCO)CC3)CC2)o1 the screen gave 15.33%.
With CN1CCC(N[C@@H]2CO[C@H](CNC(=O)C3CCCC3)[C@H]2O)CC1 the screen gave 5.763%.
With CCNC(=O)NC(=O)CN1CCC(c2c[nH]c3ccc(OC)cc23)CC1 the screen gave 9.971%.
With Cc1cccc(CN2CC3(CCN(Cc4ccco4)CC3)OCC2=O)n1 the screen gave 8.629%.
With Cc1ccc(C(=O)N2CCCC3(CCCC(=O)N3C)C2)cc1F (configuration not stated) the screen gave 4.377%.
With CCOc1cccc(CNc2cccc(C(=O)OC)c2)c1O the screen gave 13.03%.
With CN(Cc1nc(-c2cccnc2)no1)C(=O)c1cnc2n1CCCC2 the screen gave 6.272%.
With O=C1CC(NCc2ccc(Cl)s2)CN1Cc1cccc(F)c1 (configuration not stated) the screen gave 2.089%.
With Cc1nccc(C2CCCCN2Cc2cccc(F)c2)n1 (configuration not stated) the screen gave 10.32%.

4 of the entries, repeated:

* CS(=O)(=O)NCc1cn2c(n1)CN(Cc1cccnc1)CC2 | 3.519%
* COCCN1CCC(CNC(=O)Nc2ccc(SC(F)(F)F)cc2)C1 (configuration not stated) | 12.24%
* Cn1cc(CN(C(=O)C2COc3ccccc3C2)C2CC2)cn1 (configuration not stated) | 10.13%
* CCCn1nc(-c2nc(COc3ccccc3)no2)ccc1=O | 8.101%

The values are deposited in ChEMBL (CHEMBL3988442, “University of Dundee, Small-Polar-MMV Screening Library” (2021)).